# Data published in the supplement of paper PMC3334620.
# Over roughly 33,000 sequences, “E-score (-0.5 to 0.5)” has its median near -0.015; the highest 2% begin near 0.3. This is one part of the list.
# Target: T1, Abf1 (UniProt P14164)
# T1 sequence: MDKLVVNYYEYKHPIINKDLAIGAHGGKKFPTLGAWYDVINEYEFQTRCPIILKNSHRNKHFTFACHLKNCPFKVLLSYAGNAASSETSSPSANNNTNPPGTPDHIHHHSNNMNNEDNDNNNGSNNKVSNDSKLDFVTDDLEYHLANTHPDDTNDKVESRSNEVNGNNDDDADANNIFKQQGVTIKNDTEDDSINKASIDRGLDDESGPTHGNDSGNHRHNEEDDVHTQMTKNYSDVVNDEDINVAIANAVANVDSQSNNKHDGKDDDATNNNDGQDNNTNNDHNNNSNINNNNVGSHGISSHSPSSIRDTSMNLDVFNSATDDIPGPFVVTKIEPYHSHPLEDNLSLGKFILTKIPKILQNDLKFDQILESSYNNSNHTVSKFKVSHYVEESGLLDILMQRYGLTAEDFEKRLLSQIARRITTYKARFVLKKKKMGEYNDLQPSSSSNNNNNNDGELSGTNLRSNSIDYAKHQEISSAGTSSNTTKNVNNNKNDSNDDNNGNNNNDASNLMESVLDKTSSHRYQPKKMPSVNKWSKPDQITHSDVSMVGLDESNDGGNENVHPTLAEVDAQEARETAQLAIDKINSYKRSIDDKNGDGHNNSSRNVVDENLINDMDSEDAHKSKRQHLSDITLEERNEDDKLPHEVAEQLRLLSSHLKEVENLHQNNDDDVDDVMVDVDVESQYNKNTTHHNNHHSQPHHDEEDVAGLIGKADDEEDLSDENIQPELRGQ
# Assay: PBM E-score (8-mer binding enrichment) (E-score (-0.5 to 0.5)); higher = stronger / more preferred TF binding
# Conditions: protein concentration: 200 nM; construct: GST-full length
# Method in brief: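 For each ungapped eight-base word taken together with its reverse complement, the Universal PBM Analysis Suite assigned an E-score. Binding data came from GST-tagged yeast transcription factors, applied at about 100-200 nM, on universal all-10-mer Agilent arrays made double-stranded by primer extension. Fluorescent anti-GST marked bound protein, and scans were normalised with masliner.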
row,Sequence,PBM E-score
1,CGACCTAC,0.0718
2,GATGGGGC,-0.131
3,CCAAACTC,-0.114
4,AACGCTCG,0.0271
5,AAAATCGC,0.168
6,CGGGGAAC,-0.124
7,CCGTACAG,0.21
8,GGCCTACA,-0.149
9,CTGGGGTA,0.00583
10,GCCCACCC,-0.0706
11,GTTACTAA,0.202
12,CTGTTCGC,-0.0964
13,AATCGCCT,0.0339
14,ATGGCCAT,-0.118
15,ATACCGTA,0.249
16,CTTAGATA,0.148
17,GGGTCTAA,-0.112
18,GTCGGGTA,0.0556
19,GTTGTGAA,0.0499
20,TCCTCTCA,-0.095
21,GATGGAAA,-0.0625
22,ACCAAGTA,0.131
23,ACGGGAAT,0.132
24,CTATTGTC,0.0788
25,ATTTACTA,0.171

row,Sequence,PBM E-score
1,GTATATGA,0.12
2,ACGGCAGG,0.0975
3,GTTGGAGA,-0.0467
4,CTCTCCCA,-0.061
5,GGGTTCAA,-0.105
6,ATTTTTCG,0.229
7,CCGGATAA,0.0285
8,AATAGCTA,0.103
9,GGGGTAGA,-0.0184
10,GCTCTTAA,0.0207
11,CCTGTGAA,-0.0187
12,GTATGGAA,-0.074
13,GATAGTCA,0.247
14,TACACAAA,0.0301
15,CCACCCAG,-0.115
16,AACTACAC,0.0268
17,CCGCCAAA,0.109
18,CATATTCC,-0.229
19,CAGGTACA,-0.0696
20,GGGCTCCA,-0.268
21,ATCTATAA,0.185
22,AAAGCATA,-0.0894
23,CCCTGACG,-0.00862
24,GAACCATC,-0.152
25,CACGCGGA,0.129

row,Sequence,PBM E-score
1,ATGTACAC,0.0413
2,CCCGGGGC,-0.227
3,AACTCAGT,-0.224
4,GCGGATAA,0.137
5,GACCAAAA,0.183
6,AGCCCTAG,-0.18
7,GCTAACCA,-0.0495
8,ATTGGCTG,-0.0632
9,GGATTCAC,-0.0209
10,AGGCCTCC,-0.135
11,CGGCTCAA,-0.00183
12,TCACCTCA,0.21
13,TATTGTAA,0.133
14,CGCCGGGC,-0.161
15,GGAGGCCC,-0.223
16,AAGTCGCT,-0.0265
17,GAGCTTAC,-0.0972
18,CGTGATGA,0.31
19,ATGCTAAT,0.0338
20,CATTAAAA,0.129
21,CTTCGAGC,-0.178
22,AAAATCTC,0.0592
23,ATTCGCCA,0.178
24,GCCAAGAC,-0.122
25,CTGACCAC,-0.102

row,Sequence,PBM E-score
1,TATCGAGA,0.0688
2,AGAGCAGG,-0.173
3,GGTAGCCA,0.134
4,ACAAGACT,-0.059
5,CCCAGGGG,-0.373
6,AATGTTGC,0.00562
7,ATAGCAAT,0.13
8,AAGTTGCG,0.0343
9,CGGGGTTA,0.136
10,GGTTGCGA,0.154
11,AGATTGGC,-0.188
12,AAGGCCGC,-0.0691
13,CCCGCTCC,-0.298
14,CAGGCACG,0.149
15,ATAGAGTG,0.0485
16,CTATATCA,0.267
17,AAATTCGG,0.0545
18,GGTGGACA,-0.131
19,CTTGATTA,-0.149
20,AGATGAAC,-0.0774
21,ATGACCAG,0.144
22,AAAATGTA,0.127
23,ACGTTCGA,-0.00173
24,AAGCCTCC,-0.193
25,GTGACAAC,0.375

# 2 entries from above, as tab-separated lines:
row	Sequence	PBM E-score
20	GGGCTCCA	-0.268
15	GGAGGCCC	-0.223

# As entered above:
# PBM E-score, ATAGCAAT is entered as 0.13
# PBM E-score, ATGACCAG is entered as 0.144
# PBM E-score, ATAGAGTG is entered as 0.0485
# PBM E-score, CTTGATTA is entered as -0.149
# PBM E-score, AGAGCAGG is entered as -0.173

# Further results follow.

row,Sequence,PBM E-score
1,CTTTCATA,0.14
2,CAGGATAC,0.0654
3,CTGTGTAA,0.0527
4,TAGGGAAA,0.096
5,AATCATAT,0.191
6,ACGGTTCG,0.192
7,GAAAGACC,-0.183
8,CGACTCTC,-0.0891
9,CCGGCGCC,0.0169
10,AAAATAGG,0.0199
11,GAGATGAA,-0.253
12,GCTAGAGA,0.0223
13,CCCCTTCC,-0.152
14,ACTAAAGG,-0.0713
15,ATTCACAA,0.121
16,GAATGGGC,-0.165
17,CGCACGCG,-0.146
18,GATCTGGC,0.0128
19,GGGGGCAC,-0.276
20,CAGAGCAC,-0.137
21,ATCCGATG,0.0878
22,ATCGGTGG,-0.12
23,AACTGGCT,-0.0911
24,AGGGCCCA,-0.324
25,ACCCATCA,-0.117

row,Sequence,PBM E-score
1,AGAGCGGG,-0.303
2,CGAAGGCC,-0.0665
3,GAGTTGAA,0.0196
4,AAAAGGCG,0.101
5,GATAAGGC,0.102
6,AATAAATC,0.0801
7,CCTAATCC,-0.151
8,AGTGAACT,-0.111
9,CTTCCCGC,-0.185
10,CATACGAA,0.267
11,GTCCCCTA,-0.0753
12,TAAATCCA,0.0899
13,ATACGTGG,0.155
14,CGTAGAAG,0.222
15,GGTTTGAC,0.0419
16,CTCCGCAG,-0.188
17,ACTACGAC,0.117
18,ATATCTGG,-0.0601
19,CTTCATTC,-0.00981
20,CACATTGC,0.114
21,CTGCCTTA,-0.0396
22,ATCGGATA,0.00543
23,GCATATAA,0.149
24,CTCGCTCA,0.00676
25,CGGGGAGA,-0.168

row,Sequence,PBM E-score
1,CCCTAAAG,-0.129
2,CTGAGCTC,-0.232
3,CGTGATCC,-0.0112
4,CACCCTAC,0.0301
5,CTGGCGCC,-0.174
6,TAAAGTCA,0.156
7,ATGTAGCA,0.236
8,AAGCAAGG,-0.0713
9,TACCAGGA,0.0687
10,AACCTCAG,0.0107
11,GATGCCCA,-0.0338
12,GAGGATGC,-0.0459
13,TTAGTGAA,0.145
14,ACTATATG,0.216
15,AGAATCGG,0.00628
16,CAAGGCCC,-0.381
17,CAAAAGAC,-0.115
18,CGTACCTA,0.142
19,TATTGCAA,-0.0157
20,CGCAAAAG,-0.0748
21,CTAGAGAA,-0.0539
22,CTTAGAGA,0.0261
